Assay results reported in PubChem BioAssay AID1688 (National Center for Advancing Translational Sciences (NCATS), 2009).
Hit rate of the full screen: of about 220,000 compounds, about 2,400 (1.1%) were called active. This list was built around the results that the source calls inconclusive (neither active nor inactive); the mix of calls is not that of the screen. Calls follow the shape of the dose curve; as a rule, active = well fitted inhibition curve with a large enough effect; inconclusive = small, poorly fitted or top-dose-only effect, or effect the other way; inactive = no such curve, though single readings can be large or run the other way. Potencies beside an inconclusive call are fits to weak or partial responses and may not hold up.

assay: qHTS Multiplex Assay to Identify Dual Action Probes in a Cell Model of Huntington: Aggregate Formation (GFP); conditions: PC12 HttQ103-GFP aggregates, Acumen cytometry, 40 h; activity change, negative = inhibition: at 46.1 µM (top of the series) unless noted; also: nearly all actives have a fitted effect of over 60% in size
In short: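 Multiplexed with ATP-based cell death, this channel scores GFP aggregates in PC12 cells expressing inducible HTTex1-Q103-GFP. Induction used 100 nM tebufenozide; compounds were tested in concentration series.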
% is scaled to controls: 0 for no effect and ±100 for the full control effect; potency is read from the fitted curve at half-maximal effect.

| SMILES | Potency | activity change, negative = inhibition |
| --- | --- | --- |
| CC(/C=N/NC(=O)c1cc(-c2ccncc2)nc2ccccc12)=C\c1ccco1 | inconclusive: 10 µM [activator, partial curve] | – |
| CC1=C(Cl)C2=NS(=O)(=O)CCN2C=C1Cl | active: 0.112 µM | – |
| CC(C)(C)c1ccc(C(=O)CSc2nc3ccccc3c(=O)[nH]2)cc1 | inconclusive: 6.31 µM [inhibitor, single point] | – |
| CCN(CC)S(=O)(=O)c1ccc(N2CCOCC2)c(NC(=O)c2cc([N+](=O)[O-])ccc2Cl)c1 | inactive | – |
| COc1ccc(Nc2nc3ccccc3nc2NS(=O)(=O)c2cccs2)cc1 | active: 22.4 µM | – |
| COc1cccc(C(=O)Nc2ccccc2C(=O)N2CCCC2)c1 | inconclusive: 0.562 µM [activator, full curve] | – |
| C/C(=N\NC(=O)c1ccc(Br)cc1)C1C(=O)c2ccccc2C1=O | inconclusive: 25.1 µM [inhibitor, single point] | – |
| COc1ccc(Nc2nnc(SCc3cc(=O)n4ccsc4n3)s2)cc1 | inactive | – |
| CN(C)c1nc(SCC#N)nc(N2CCOCC2)n1 | inconclusive: 0.631 µM [activator, single point] | – |
| COc1ccccc1N(C(=O)NCc1ccccc1)C1=NCC(C)S1 (stereo unspecified) | inactive | – |
| Cc1cc(C)n2nc(CC#N)c(C#N)c2n1 | inconclusive: 5.62 µM [inhibitor, single point] | – |
| O=C(Nc1nnc(C2CC2)o1)c1ccc(S(=O)(=O)N2CCCc3ccccc32)cc1 | active: 11.2 µM | – |
| COc1ccc(C2c3c(-c4ccccc4O)n[nH]c3C(=O)N2CCc2ccc(OC)c(OC)c2)cc1 (stereo unspecified) | inconclusive: 35.5 µM [inhibitor, single point] | – |
| O=C1CCCC2=C1C(c1cccs1)n1nc(SCc3ccc(C(=O)O)cc3)nc1N2 (stereo unspecified) | – | inactive: -4.8% [at 9.22 µM] |
| O=C(NC(NC(=S)Nc1ccccc1)C(Cl)(Cl)Cl)c1cccc(Cl)c1 (stereo unspecified) | active: 11.2 µM | – |
| O=C(COc1cccc2cccnc12)N1CCc2ccccc2C1 | inconclusive: 2.82 µM [activator, partial curve] | – |
| CCCCCOc1ccc(Br)cc1/C(C)=N/NC1=NCCN1 | inconclusive: 10 µM [inhibitor, partial curve] | – |
| CCCC(=O)Nc1ccc(NC(=O)c2ccco2)cn1 | inactive | – |
| O=C(NCc1cccnc1)C(=O)NCC1OCCN1S(=O)(=O)c1ccc(Cl)cc1 (stereo unspecified) | inactive | – |
| CCOC(=O)c1cc(CC)sc1N1C(=O)CC(Sc2ccccc2C(=O)O)C1=O (stereo unspecified) | inactive | – |
| COc1cc(/C=C(\C#N)C(=O)NCC2CCCO2)ccc1O (stereo unspecified) | inactive | – |
| CN(C)S(=O)(=O)c1ccc(NC(=O)CN2CCN(C(c3ccccc3)c3ccccc3)CC2)cc1 | inconclusive: 2.82 µM [activator, full curve, poor fit] | – |
| OCCNc1nc2ccccc2n1-c1ncnc2sc3c(c12)CCC3 | inconclusive: 8.91 µM [inhibitor, partial curve] | – |

| SMILES | Potency | activity change, negative = inhibition |
| --- | --- | --- |
| O=C(/C(=C/c1ccc(Cl)cc1)c1nc2ccccc2[nH]1)c1ccccc1 | active: 5.01 µM | – |
| CCOC(=O)c1c(-c2ccc(OC)cc2)nc2nonc2c1N | inconclusive: 0.316 µM [activator, partial curve] | – |
| Cc1cc2cc(CN(Cc3cccs3)C(=S)NCc3ccco3)c(=O)[nH]c2cc1C | inactive | – |
| CC1(C)CC(=O)C/C(=N/NC(=O)COc2ccc(Cl)cc2Cl)C1 | – | inactive: 17.4% [at 9.22 µM] |
| CCOC(=O)C1=C(c2ccccc2)NC(=S)NC1c1ccc(C)c([N+](=O)[O-])c1 (stereo unspecified) | inactive | – |
| CC1=C/C(=N\NC(=O)c2ccc(O)cc2)CC1 | inconclusive: 2.24 µM [inhibitor, partial curve] | – |
| CC(C)c1ccc(C(N)=S)cc1 | inconclusive: 35.5 µM [activator, partial curve] | – |
| O=C(COc1ccc(/C=N/NS(=O)(=O)c2ccccc2)cc1)NCc1ccccc1 | inconclusive: 12.6 µM [activator, single point] | – |
| C=CCn1c(C)cc(C(=O)Cn2ncc(Cl)c(Cl)c2=O)c1C | inconclusive: 35.5 µM [inhibitor, single point] | – |
| CS(=O)(=O)c1ccc(S(=O)CC(=O)OCc2ccccc2)c([N+](=O)[O-])c1 (stereo unspecified) | inconclusive: 22.4 µM [inhibitor, single point] | – |
| CC(C)OC(=O)c1ccc(NC(=O)c2ccccc2)cc1 | inconclusive: 1.58 µM [inhibitor, partial curve] | – |
| Cc1ccc(-c2csc3nc4c5ccccc5c(NCCCN(C)C)nn4c(=O)c23)cc1 | inconclusive: 35.5 µM [inhibitor, single point] | – |
| Cc1nnc(NC(=O)CSc2nnc(Cc3cccn3C)n2C)s1 | inactive | – |
| O=C1/C(=C/c2ccc(O)c([N+](=O)[O-])c2)SC(=S)N1Cc1ccccc1 | inconclusive: 15.8 µM [inhibitor, single point] | – |
| CC(C)CCNc1nc2c(c(=O)n(Cc3cccc(F)c3)c(=O)n2C)n1C | active: 25.1 µM | – |
| COc1ccc(N(C)S(=O)(=O)c2cccc(C(=O)Nc3nc4ccccc4[nH]3)c2)cc1 | inconclusive: 17.8 µM [inhibitor, single point] | – |
| CCCCC1(C)OC(=O)C(=Cc2ccc(N(C)C)cc2)C(=O)O1 (stereo unspecified) | inactive | – |
| COc1ccc(/C=C/C(=O)NC(=S)Nc2ccc(C(=O)O)cc2)cc1 | inconclusive: 35.5 µM [activator, single point] | – |
| C/C(=N\NC(=O)c1ccc(O)cc1)c1cc2ccccc2o1 | inconclusive: 6.31 µM [activator, single point] | – |
| Clc1ccc(CSc2nnnn2-c2ccc3c(c2)OCO3)c(Cl)c1 | inconclusive: 25.1 µM [inhibitor, single point] | – |
| CCN(CC(=O)Nc1ccc(OC)c(Cl)c1)CC(=O)NC(C)C | inconclusive: 35.5 µM [inhibitor, single point] | – |
| CCOc1nnc(C)c2c(C)n(-c3ccc(Cl)cc3)nc12 | inconclusive: 1.58 µM [inhibitor, partial curve] | – |
| O=C(COc1ccc([N+](=O)[O-])cc1)Nc1ccc(C(=O)NCc2cccnc2)cc1 | active: 3.55 µM | – |

Compounds from the list above containing a furan ring, fused or not, in the order listed:

| SMILES | Potency | activity change, negative = inhibition |
| --- | --- | --- |
| CC(/C=N/NC(=O)c1cc(-c2ccncc2)nc2ccccc12)=C\c1ccco1 | inconclusive: 10 µM [activator, partial curve] | – |
| CCCC(=O)Nc1ccc(NC(=O)c2ccco2)cn1 | inactive | – |
| Cc1cc2cc(CN(Cc3cccs3)C(=S)NCc3ccco3)c(=O)[nH]c2cc1C | inactive | – |
| C/C(=N\NC(=O)c1ccc(O)cc1)c1cc2ccccc2o1 | inconclusive: 6.31 µM [activator, single point] | – |
